Whole data set: some 33,000 sequences, median “E-score (-0.5 to 0.5)” near -8e-05, cut for the highest 2% near 0.23. The list shows a part of the results.
The sequences below were run against T1, Nrg2 (UniProt P38082) (assay: PBM E-score (8-mer binding enrichment) (E-score (-0.5 to 0.5)); higher = stronger / more preferred TF binding). Conditions: protein concentration: 100 nM; construct: GST-full length.
T1 sequence: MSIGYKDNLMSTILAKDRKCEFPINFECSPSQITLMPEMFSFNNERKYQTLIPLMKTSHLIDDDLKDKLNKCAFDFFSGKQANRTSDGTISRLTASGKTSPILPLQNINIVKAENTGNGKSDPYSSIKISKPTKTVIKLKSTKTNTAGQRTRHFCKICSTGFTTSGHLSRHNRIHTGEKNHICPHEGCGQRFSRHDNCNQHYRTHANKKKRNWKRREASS
Procedure: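 Universal 'all 10-mer' protein binding microarrays (Agilent AMADID 015681) probed with GST-tagged S. cerevisiae TFs (full-length or DBD) made by in vitro transcription/translation (PURExpress), about 100-200 nM. Bound TF was detected with fluorescent anti-GST. Each ungapped 8-mer (which stands for itself and its reverse complement) is scored by the PBM enrichment score (E-score), a modified Wilcoxon-Mann-Whitney statistic from -0.5 to +0.5, computed with the Universal PBM Analysis Suite. Scale: above 0.35 generally sequence-specific binding.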

Sequence | PBM E-score
GCCCCCCA | -0.469
ATGCTGCA | -0.0148
ACTTTTCT | -0.0205
GCTACAGC | 0.049
CACACAAC | 0.0726
ACTGCCGA | 0.148
AAACAGTT | 0.0716
GATTGGCC | -0.00877
TAACTAGA | 0.256
AATAATGG | 0.136
TGTAAGAA | 0.062
CAATCACG | 0.0288
ATAAACAG | 0.0593
GGTAGATA | -0.00158
CGGTTATC | -0.102
ACTGAATA | 0.0684
AACCCGCT | -0.126
CTTAGGTA | -0.0168
CGAGGTAA | 0.013
TCCGGCAA | -0.0255
AGAGACCA | -0.0477
AACGACTA | -0.00846

Sequence | PBM E-score
ATGATACA | 0.182
GGCGTAAC | -0.192
AAATACTT | 0.0648
ACATACGC | 0.0681
CTATGGGA | -0.0453
AAGTGCCC | -0.0791
ACCTTTCA | -0.0238
ACGCGGCG | 0.0199
GACGATCC | 0.0514
GTCCTAGA | -0.201
TGACGTCA | 0.279
AAACCATG | 0.0105
GAACTACC | 0.0502
ATCATAGC | 0.0417
AGAACAGC | 0.0639
CTAATCTA | 0.026
CTGCTGAC | 0.0401
GAACACGC | 0.0886
ACGCTCAC | 0.046
GTCAGATA | -0.0646
GATACAGC | -0.0962
CTGATTGC | 0.0232

Sequence | PBM E-score
TCTTAAGA | 0.139
CTCGGAGA | 0.0113
AAATCGGG | 0.151
ATATCTAA | 0.148
CTCCAATC | -0.126
ATATTGTC | 0.178
CAGACACG | -0.234
GCCCAACC | 0.0486
AACGTGTG | -0.227
ATGCTAAG | -0.00385
AAGAGCCT | -0.291
CGGAAACG | -0.0114
AGTGAGGG | -0.103
CTCCAGTC | -0.0457
ACCTTTTG | -0.157
ACGGCATA | 0.201
ATCCACTC | 0.16
TCGAGCCA | -0.0891
AACAGTTG | -0.0713
ACCCGCCT | -0.192
ATTAGCGC | 0.144
AAGGACTC | -0.0561

Sequence | PBM E-score
AAACGTAG | -0.0255
AAGGAGAG | -0.23
GCAATTAA | 0.0965
ACGTGATC | -0.0893
ATGTTCGG | 0.157
CAAACATA | 0.0325
AGACCAAA | 0.0133
CTATACTA | 0.111
CTTCGTAC | -0.0544
GAATCCGA | 0.0398
GATGTGGA | 0.0477
AGGTGAAC | 0.077
ACCTAACT | 0.149
CTACAAAC | 0.0676
ATCATTCC | 0.132
CCTCAACG | -0.159
GACCCCCA | -0.399
CTAGCCAG | -0.2
AAGCACAA | 0.06
CAGCATTA | -0.0471
AATCTCGC | 0.235
AACTTTTG | 0.128

Some of the entries so far, in markdown:

| Sequence | PBM E-score |
| --- | --- |
| AACGTGTG | -0.227 |
| ATGCTAAG | -0.00385 |
| AAGAGCCT | -0.291 |
| CGGAAACG | -0.0114 |
| AGTGAGGG | -0.103 |
| CTCCAGTC | -0.0457 |
| ACCTTTTG | -0.157 |
| ACGGCATA | 0.201 |
| ATCCACTC | 0.16 |
| TCGAGCCA | -0.0891 |
| AACAGTTG | -0.0713 |
| ACCCGCCT | -0.192 |
| ATTAGCGC | 0.144 |
| AAGGACTC | -0.0561 |
| AAACGTAG | -0.0255 |
| AAGGAGAG | -0.23 |
| GCAATTAA | 0.0965 |
| ACGTGATC | -0.0893 |
| ATGTTCGG | 0.157 |
| CAAACATA | 0.0325 |
| AGACCAAA | 0.0133 |
| CTATACTA | 0.111 |
| CTTCGTAC | -0.0544 |
| GAATCCGA | 0.0398 |
| GATGTGGA | 0.0477 |
| AGGTGAAC | 0.077 |
| ACCTAACT | 0.149 |
| CTACAAAC | 0.0676 |
| ATCATTCC | 0.132 |
| CCTCAACG | -0.159 |
| GACCCCCA | -0.399 |
| CTAGCCAG | -0.2 |
| AAGCACAA | 0.06 |
| CAGCATTA | -0.0471 |

(continued)

Sequence | PBM E-score
GGCTATAC | -0.126
GGACCTGA | -0.0245
AAAGCTAA | -0.0819
ATGCAGGG | 0.181
AGGTCCGC | -0.0894
CGATCGCA | 0.215
CGCTGGGC | -0.112
ACAAATAA | 0.152
CCACTCGC | -0.0342
CAGTCGGG | -0.132
TACGCACA | 0.212
AGTAATCA | 0.0106
ATCCGTTA | 0.137
AGGATGCA | -0.0419
GAACGCAC | 0.0904
ACGTCCTA | 0.0273
CAAAGACA | -0.015
TATTCGGA | 0.189
TGGGCGAA | 0.0579
CGACCGAC | -0.0544
GAACCGGA | 0.0277
